Among the data in PubChem BioAssay AID1508600 (Functional Genomics Laboratory (NCATS/FGL), 2020) are z-score values, retold here.

The whole screen tested about 53,000 sequences, of which about 3,700 (7%) were called active.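 Rule for the calls: active = gene knockdowns whose robust z-score for IL-1 alpha signal is at least 2 or at most -2, so actives lie on both sides; inactive = the rest.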 The list shows a part of the results.

This assay is described as follows: Components of the Cytosolic LPS Sensing Pathway: Gene Identification via Genome-wide siRNA Screen.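 Note: robust z of the log signal after scaling to non-targeting control siRNA wells of the plate.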 The conditions noted are these: RAW264.7 macrophages, IL-1a HTRF, actives lie on both sides, screened at 100 nM (by protocol), cells primed 5 h with Pam3CSK4 first. In a few lines:
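Supernatant IL-1a by HTRF from RAW264.7 cells primed with Pam3CSK4 (5 hours) and transfected with LipidA (24 hour) after 48h siRNA knockdown at 100 nM; cell viability checked with CellTiter-Glo.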
For the sequence GGAUGAUGAGUUUCUCACATT against Pkd1l2, the z-score was inactive: -0.229.
The result for CGAGGAUGACUUGAUGACCTT against Ajm1 reads active: -2.18.
In the case of GGAAGCUGGCCAUAGAGAATT against Sall4, the z-score is inactive: 0.733.
As to GCAUUAACAAAUAUCGUGUTT against Sin3a, the z-score is inactive: 0.748.
The same measure for UAUUCAACCUCGGUCUCAGTT against Olfr473: inactive: 0.241; for GGGUUGAACCUAAAGUCUATT against Akr1cl: inactive: -1.4; for CCCGUGCCUUCCUUAAAGCTT against Ggt6: inactive: 0.327.
The result for GCCCAUCGAUCCUAAGGAATT against Noct reads inactive: 0.538; that for GCAGGAAAUCUAAUGCACUTT against Gsdma3, inactive: -0.359.
In the case of GGGCAAGUUCCAUCUCCUUTT against Cdc42ep2, the z-score is active: -2.2.
For the sequence GGAGAAUGCACAGGUCAUGTT against Ubxn4, the z-score is inactive: -0.038.
The same measure for GGCAGAAAGCAGAAACAGUTT against Mok: inactive: -0.901; for GCGACUAAUCCUUUGCUACTT against Cdc42bpb: inactive: 0.938.
The result for GGACGGUUCCUUCAUAGUATT against Poglut2 reads inactive: -0.0538; that for GGUUCUUCAAACUAGACCGTT against Mov10, inactive: 0.128.
The result for GCCAAUGGGUUGGUAAGAUTT against Fndc9 reads inactive: 0.151.
For the sequence GCGACAUGGGUUAAAAGAATT against Nr4a3, the z-score is inactive: -1.16.
The same measure for GGUAUAUUGGGACCUUUAUTT against Fcgr1: inactive: 1.08; for GGUAAUUGGGCGACACCAUTT against Sh3bgrl2: inactive: -0.43; for GGAGGAAUUCUCCAAGCUGTT against Hsd3b1: inactive: -1.26.
GGUGGAGUCUACAAUUCUCTT against Ctsb: the z-score is inactive: 0.314.
As to CCAUUAGCUCCAUUCUUUCTT against Atp6v0d2, the z-score was inactive: 0.29.
Consider GGUUAUAGAUGUAAAGUCUTT against Isg20l2, for which the z-score is inactive: -0.847.
As to CAUGUUAUCACUUUUUGGCTT against Coq2, the z-score was inactive: 0.93.
The result for GGAGUUUUUACAGAAAAUGTT against Scin reads inactive: 0.202; that for “GCCAUCAGAAUUCGAUACATT against 2900092C05Rik”, inactive: 1.68; that for GGUUCAGAUCCAUCACUCGTT against Rab39b, inactive: -1.19.
The result for CCCUGGGAAGUGGAUUCAUTT against Olfr694 reads inactive: 1.03; that for GUGAGACUAAGUUACGCGATT against Olfr1501, inactive: 0.675.
The result for GGGUGGAAGCUUUUUAAUATT against Memo1 reads inactive: -0.522; that for GAUUUGAGACCCAGAUCAUTT against Gzmm, active: 2.08.
GGACAUAGAGAACAUCAUCTT against Cabp7: the z-score was active: 4.02.
The result for GGUCUUUUUGCCUGGUUUUTT against Akap10 reads inactive: 1.92; that for GGACAUGCUAUAAUGUAUUTT against Zkscan1, inactive: 0.376.
The result for GCUUCUCAGACAAAUAUGGTT against Plin4 reads inactive: -1.2.
Regarding GCUUUUAUGCAGCUAAACGTT against Ecpas, the z-score is inactive: -0.714.
The same measure for GCGGCACUUUAUCAUUAUCTT against Hint3: inactive: 0.398; for GGAAGGUAUUACGUCAAAUTT against Sec24a: inactive: 0.368; for GGAAAGGAGAACAAAGUUCTT against Tnfsf8: inactive: -0.823.
The same measure for GCCCGACCUGUUGAGAAGATT against Znhit3: inactive: 1.43; for GGUUUCUGCGUCUUCACCCTT against Nr3c1: inactive: -1.28; for CCAGAGAGCCUUUUGUUUUTT against Mrfap1: inactive: 0.524.
With GGCACAUGGUUUCUGACCUTT against Clcf1, the z-score was inactive: 0.927.
The result for GAAGCUCAUAGUGACUGUCTT against Vmn1r25 reads inactive: -1.26.
The result for GGACAUCUUUUCAAACGUGTT against Acap1 reads inactive: -1.09; that for GGAUUGGUUUAGUCAAUAATT against Psmc4, active: -2.03.
The same measure for GGCAGUUUUUGGACUGUCCTT against Olfr556: inactive: -0.21; for GCUAAGAGAGAACAUUGAGTT against Lrr1: inactive: 1.41; for CAGAUCCAUCUCUUAAUGGTT against Olfr204: inactive: 0.383.
For the sequence GGGAUCUGGAUGAGGUCAATT against Tcf7l1, the z-score is active: 3.02.
The result for GGGAAAGCACUCCAACACATT against Frem1 reads active: -2.12; that for GCUGCUGAUUCAAUUCUAUTT against Ago4, inactive: 1.49; that for GGCCAUCAUUGUCACCGUGTT against Adra2a, inactive: 0.955.
The result for GCGGCCAGUUCGUUAUAUUTT against Abi2 reads inactive: 0.19; that for CCUGGAUAAAGAUUUUAGATT against Olfr722, inactive: -0.486; that for CCAUGCAGCAAAUCGAGUUTT against Klk1b5, inactive: 0.912.
The same measure for GGCUAGCCUUGAAUUUAUGTT against Trp53rkb: inactive: 0.0703; for GGACCACCAGACAUUCUUUTT against St7: inactive: -0.0638; for GCCACUACUUGAUCUAUCATT against Cd34: inactive: 0.944.
For the sequence CCCAAUUGGAAACCUGAACTT against Actn3, the z-score is inactive: -1.65.
The result for GGCAAAAGGAAGGUAGCCUTT against Cdyl reads inactive: 0.574.
The result for GGAGAUGUCAAUCAAACCCTT against Tmem26 reads inactive: -1.11; that for GGCAGAGAUGGUGUUGAUGTT against Col1a2, inactive: -0.342.
The same measure for GCAACGAGUGUGUUUUCUGTT against Spink10: active: 2.25; for GGCAGAAUUGUGGAGUUCGTT against Cblc: inactive: -0.213; for CCGUUGUAUUUAUGUUUGCTT against Mrgprb5: inactive: 0.52.
Turning to GGUGACAGUCACCAAAGAATT against Clstn1, the z-score was inactive: -1.21.
With CCACCAUGUUUUAUUCCAATT against Glod5, the z-score is inactive: -0.82.
The same measure for GCUUAUGUUUCUGCCACUCTT against Olfr1136: inactive: 0.124; for GGGAGGAAUAGCACAGUCATT against Olfr1440: inactive: 0.0568; for GCACAUUUGGACAACCAAUTT against AU018091: inactive: -0.973.
The same measure for GGUCACUGUCCACAUUUAUTT against Pitrm1: inactive: 0.764; for CGAACUCUGCUACUACACATT against Zfp846: inactive: 0.738.
The result for GCAUUAUCAGAACCAAGGGTT against Spdye4a reads inactive: -1.06; that for GGUGGAUGUCACCAGCAAGTT against Sh3gl1, inactive: 0.168; that for “GGGUGAAUUAAAUUAGUUGTT against Aadacl2fm1”, inactive: -0.104.
As for GGAAAUGUCAUGACCUUGATT against Tnfaip6, the z-score is inactive: -1.89.
For GCAUUUAGAAGAAUCCGCCTT against Hao2, the z-score is active: 2.01.
With GGUUCUAGGAAAAUUAGGUTT against Olfr575, the z-score is inactive: 1.19.
As to CCGUAGUAGAGAAAUUACATT against Exoc6, the z-score is inactive: 0.419.
In the case of GGUCCCUGGACCAAAGAAGTT against Myb, the z-score was inactive: -0.578.
The result for “GGAUUCAGCUCUCAUCAGATT against A930012O16Rik” reads inactive: -0.444.
Take GCCACGCACUAUAAAGAUUTT against Cyth1: the z-score is inactive: -0.532.
As for GGUAGAGCUCACAAGAUCATT against Gmpr2, the z-score was inactive: -0.176.
The same measure for GGGAGCAAAUUAGAGAAAUTT against Gsk3b: inactive: 0.884; for GGAAAUGCGCCAUGAGUUGTT against Soga3: inactive: -0.124; for GGUUUUCACAAGACCUCUGTT against Ptgdr: inactive: 0.904.
As to GGCUUCGCUAACCAUAGUUTT against Prtg, the z-score is inactive: -1.1.
The same measure for CCAAGCUUACACUAGUGUUTT against Cdk6: inactive: -0.429; for GGUCACUCCCACAUUUCACTT against Spred1: inactive: -1.73.
The same measure for CGAUUCUGAAGCUCCCAUCTT against Olfr684: inactive: 0.638; for GGAAAAGAGUGAUUUCCUATT against Fsd1l: inactive: 1.29; for GGUGGAGUUUGACGAUUCCTT against Car5a: inactive: 0.697.
The same measure for GGAAGUGGUUUGAGCCAUCTT against Slc37a4: inactive: -1; for GGAACCCUCCGAAGACUAUTT against Pml: inactive: 0.97.
As for GGCCAAGACCUCAGAGAUUTT against Apoa2, the z-score is inactive: -1.39.
In the case of GGAAGAGGAAAUGGAAUCATT against Mrnip, the z-score was inactive: 1.42.
The same measure for CCUCCUGAGGAAACGAUUUTT against Tdh: inactive: 0.0107; for GCAUUCCAUGGUACAGGGUTT against Adamts4: inactive: -0.646.
The result for “CGAUAUGGCUGGAUUCCAUTT against 4930471G03Rik” reads inactive: 1.12; that for “GCAGUGUAUACCUGGGCUATT against 1700001C19Rik”, inactive: 0.388.
The same measure for GCUGUGUGCUAUUUCCCACTT against Flywch2: inactive: 1.52.
In the case of CCGAAUUCGGUUUAAGCUCTT against Gtf2ird1, the z-score was inactive: -0.0731.
The result for GCUUACGUAGGAAAUCUCCTT against Eif4h reads inactive: -0.00512; that for GGAGAAAAGCAAUAAUGAATT against Klf12, inactive: -1.07; that for GGAAAUAGUACAGAAACCATT against Mcph1, active: -2.44.
The result for GGCACACUCUCGCAUCUAATT against Lcn4 reads inactive: -0.735.
